Measured values taken from PMC3355152.
Results are given in words; binding and its absence hold for the method and conditions named. Some entries that bind do so weakly or less than the wild type. Each block holds one binder with its values, some of them ahead of it.

Amino acid sequences for entries named in this document (tags omitted).
UniProt O42978: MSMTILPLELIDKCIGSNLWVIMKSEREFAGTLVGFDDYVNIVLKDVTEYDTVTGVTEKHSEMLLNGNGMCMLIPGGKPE

Columns and labels:
[1] = target: T1, SpLsm6 (Lsm6 from S. pombe) (S. pombe) (UniProt Q9UUI1); experiment: crystal structure; SeMet-SpLsm5/6/7; hanging drop, 15°C, 0.1 M Mes pH 6.5, 0.1 M MgCl2, 32% PEG 400; 2.3 Å, SAD; both purified
T1 sequence (chain, SeMet-substituted in the crystal): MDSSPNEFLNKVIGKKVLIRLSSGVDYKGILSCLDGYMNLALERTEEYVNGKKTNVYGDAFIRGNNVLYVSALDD

[2] = target: SpLsm5 (Lsm5 from S. pombe) (S. pombe) (UniProt O42978); experiment: as above

- binding [1]: binds
- binding [2]: binds
B1: SpLsm7 (Lsm7 from S. pombe) (protein, UniProt O74499 1-113)
chain: MSSLQKRPGPGNSSQPTERPRKESILDLSRYQDQRIQATFTGGRQITGILKGFDQLMNLVLDDVEEQLRNPEDGKLTGAIRKLGLVVVRGTTLVLIAPMDGSEEIPNPFVQAE
modifications: SeMet-substituted in the crystal

- binding [2]: binds
B2: SpLsm6 (Lsm6 from S. pombe) (protein, UniProt Q9UUI1 1-75)
chain: T1 sequence (chain, SeMet-substituted in the crystal)
modifications: SeMet-substituted in the crystal
